Measurements published in PMC12124604.
These are yes or no findings as the source states them, for the method shown. Binding seen in cells or lysates may run through a third protein. Some entries that bind do so weakly or less than the wild type. For part of these data: Tags and fused reporters may be left off the sequences shown.

Amino acid sequences for entries named in this document (tags omitted). A change or cut given only in a name is not applied to a line headed by its entry.
UniProt P16520: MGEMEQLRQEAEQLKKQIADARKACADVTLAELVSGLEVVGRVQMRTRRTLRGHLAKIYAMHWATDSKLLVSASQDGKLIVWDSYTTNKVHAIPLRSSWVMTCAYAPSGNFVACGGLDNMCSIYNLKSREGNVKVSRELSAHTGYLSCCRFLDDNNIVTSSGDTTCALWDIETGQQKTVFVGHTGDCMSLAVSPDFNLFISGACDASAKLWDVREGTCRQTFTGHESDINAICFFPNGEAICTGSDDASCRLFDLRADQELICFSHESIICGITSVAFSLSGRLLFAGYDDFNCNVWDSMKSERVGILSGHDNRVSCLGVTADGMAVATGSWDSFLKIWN
UniProt Q9NPQ8: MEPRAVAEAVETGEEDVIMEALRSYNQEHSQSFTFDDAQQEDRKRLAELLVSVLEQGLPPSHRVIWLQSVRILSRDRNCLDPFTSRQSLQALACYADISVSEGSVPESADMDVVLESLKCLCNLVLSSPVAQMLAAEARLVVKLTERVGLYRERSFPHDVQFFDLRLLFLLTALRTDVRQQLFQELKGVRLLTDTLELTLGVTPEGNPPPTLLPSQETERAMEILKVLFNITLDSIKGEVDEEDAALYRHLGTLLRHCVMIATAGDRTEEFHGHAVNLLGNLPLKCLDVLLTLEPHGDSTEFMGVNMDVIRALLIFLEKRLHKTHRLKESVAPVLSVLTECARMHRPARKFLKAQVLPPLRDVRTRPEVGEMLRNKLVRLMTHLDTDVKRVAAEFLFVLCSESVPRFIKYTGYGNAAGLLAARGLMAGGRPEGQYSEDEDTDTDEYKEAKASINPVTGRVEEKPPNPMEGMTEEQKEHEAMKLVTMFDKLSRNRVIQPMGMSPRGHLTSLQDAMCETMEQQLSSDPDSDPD
UniProt P14416: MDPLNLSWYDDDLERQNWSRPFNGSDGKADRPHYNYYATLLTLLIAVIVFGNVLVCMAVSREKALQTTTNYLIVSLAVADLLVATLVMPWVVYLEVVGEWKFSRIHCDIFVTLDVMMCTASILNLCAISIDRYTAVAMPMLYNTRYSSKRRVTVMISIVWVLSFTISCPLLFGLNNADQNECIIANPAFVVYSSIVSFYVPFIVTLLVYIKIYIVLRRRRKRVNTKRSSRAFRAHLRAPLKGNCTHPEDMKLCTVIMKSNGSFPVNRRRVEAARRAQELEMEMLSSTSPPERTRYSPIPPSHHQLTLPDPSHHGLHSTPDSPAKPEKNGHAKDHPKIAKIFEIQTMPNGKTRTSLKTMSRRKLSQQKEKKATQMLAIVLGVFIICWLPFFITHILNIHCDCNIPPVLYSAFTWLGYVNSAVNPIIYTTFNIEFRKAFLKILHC
UniProt P09471: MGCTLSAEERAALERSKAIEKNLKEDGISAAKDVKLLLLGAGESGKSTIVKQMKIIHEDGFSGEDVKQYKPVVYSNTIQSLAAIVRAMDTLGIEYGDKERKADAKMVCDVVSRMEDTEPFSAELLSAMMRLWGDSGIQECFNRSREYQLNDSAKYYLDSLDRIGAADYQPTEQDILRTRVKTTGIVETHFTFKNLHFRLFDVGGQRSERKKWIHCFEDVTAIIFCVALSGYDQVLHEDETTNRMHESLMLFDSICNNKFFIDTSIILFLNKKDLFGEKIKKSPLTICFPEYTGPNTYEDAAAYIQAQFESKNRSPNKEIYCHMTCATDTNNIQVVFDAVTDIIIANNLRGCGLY

Legend:
Gβ3γ9 = Gβ3γ9 (UniProt P16520); assay: FRET or BRET; BRET-based Gβ3γ9 displacement assay; details only in Fig. S2B and the supplementary methods (not shown)
GFP-tagged Ric8A = GFP-tagged Ric8A (UniProt Q9NPQ8); assay: co-IP; HEK293T cells co-transfected with the GFP-tagged bait and a Gαo variant; IP of the GFP-tagged bait with a nanobody against GFP; western blot with antibodies against Gαo and GFP; quantified
GFP-tagged RGS19 = biological target: T1, GFP-tagged RGS19 (UniProt P49795); assay: as above
T1 sequence: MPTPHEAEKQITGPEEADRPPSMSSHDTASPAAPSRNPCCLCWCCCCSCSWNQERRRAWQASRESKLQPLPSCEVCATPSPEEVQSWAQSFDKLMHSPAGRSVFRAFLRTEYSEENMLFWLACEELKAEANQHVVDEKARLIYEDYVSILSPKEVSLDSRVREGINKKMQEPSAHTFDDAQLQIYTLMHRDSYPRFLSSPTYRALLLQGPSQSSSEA

D2 dopamine receptor = D2 dopamine receptor (UniProt P14416); assay: FRET or BRET; BRET-based D2 dopamine receptor assay; details only in Fig. S2D and the supplementary methods (not shown)
GFP-tagged Ric8B = biological target: T2, GFP-tagged Ric8B (UniProt Q9NVN3); assay: co-IP; HEK293T cells co-transfected with the GFP-tagged bait and a Gαo variant; IP of the GFP-tagged bait with a nanobody against GFP; western blot with antibodies against Gαo and GFP; quantified
T2 sequence: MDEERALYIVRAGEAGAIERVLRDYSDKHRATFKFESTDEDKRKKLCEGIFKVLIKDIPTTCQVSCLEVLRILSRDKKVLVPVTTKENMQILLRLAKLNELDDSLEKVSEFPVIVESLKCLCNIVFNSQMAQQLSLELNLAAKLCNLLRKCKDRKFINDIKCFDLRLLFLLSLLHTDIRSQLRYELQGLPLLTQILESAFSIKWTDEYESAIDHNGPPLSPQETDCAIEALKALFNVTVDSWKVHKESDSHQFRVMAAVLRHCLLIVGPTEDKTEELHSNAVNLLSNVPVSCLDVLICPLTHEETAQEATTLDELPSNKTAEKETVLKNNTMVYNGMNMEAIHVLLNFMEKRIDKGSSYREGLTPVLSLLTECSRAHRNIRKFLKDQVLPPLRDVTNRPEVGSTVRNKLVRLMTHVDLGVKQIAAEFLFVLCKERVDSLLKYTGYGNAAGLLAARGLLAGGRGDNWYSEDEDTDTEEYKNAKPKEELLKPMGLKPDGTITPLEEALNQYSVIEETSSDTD

Substance	binding (Gβ3γ9)	binding (GFP-tagged Ric8A)	binding (GFP-tagged RGS19)	binding (D2 dopamine receptor)	binding (GFP-tagged Ric8B)
Gαo E246K (NEDIM-associated variant) (from UniProt P09471 1-354)	binds	–	–	–	–
Gαo F251L (GNAO1 c.751T > C; p.Phe251Leu) (from UniProt P09471-1 1-354)	–	binds	–	binds weakly	binds
Gαo S264F (GNAO1 c.791C > T; p.Ser264Phe) (from UniProt P09471-1 1-354)	binds	binds weakly	–	binds weakly	–

The next lines start with the values.

binding (Gβ3γ9)	binding (GFP-tagged Ric8A)	binding (GFP-tagged RGS19)	binding (D2 dopamine receptor)	binding (GFP-tagged Ric8B)	Substance
binds	binds weakly	binds	binds	–	G protein alpha subunit o (Gαo) wild-type (from UniProt P09471-1 1-354)
–	–	–	–	binds	Gαo G203R (DEE17-linked mutant used as control) (from UniProt P09471 1-354)
